Data as given in PubChem BioAssay AID1224829 (NIAID, 2016).

Test: 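Follow-up of TLR4-NF-kappaB regulators using six separate siRNAs for each gene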 (follow-up of hits)
System: mouse RAW264.7 G9 macrophage reporter cells
Reagent: single siRNA against mouse genes, 100 nM
Time to read-out: 2 days of siRNA knock-down, then 40 min of LPS before fixing
Challenge: LPS (Salmonella minnesota R595) at 10 ng/ml
Measured: 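High-content images after 40 min LPS exposure; GFP-p65 nucleus to surrounding ring signal ratio, normalised to plate median and non-targeting control wells, expressed as z-score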
Reading the numbers: p65 translocation z-score: higher = more nuclear NF-kappaB p65 after LPS
Active means: 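Active means the replicate-mean z-score lies beyond plus or minus 2, in either direction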
Meaning of the calls: active = changed p65 translocation (either direction); inactive = no clear change
In all, the deposit lists about 3,800 reagents; this is a part drawn at random. 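Calls cover raised and lowered translocation; gene median uses one vendor's three siRNAs; qiagen siRNAs acted more weakly than ambion siRNAs.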 Entries without a mark were called inactive. Reagents against one gene are numbered here. Further read-outs or replicates are left out here.

Tnfrsf17 #1, siRNA vendor or control pool ambion single siRNA | p65 translocation z-score, replicate mean: -0.852; p65 translocation z-score, replicate 1: -0.875
Tnfrsf17 #2, siRNA vendor or control pool ambion single siRNA | p65 translocation z-score, replicate mean: -0.639; p65 translocation z-score, replicate 1: -0.262
Tnfrsf17 #3, siRNA vendor or control pool ambion single siRNA | p65 translocation z-score, replicate mean: -1.03; p65 translocation z-score, replicate 1: 1.67
Tnfrsf17 #4, siRNA vendor or control pool qiagen single siRNA | p65 translocation z-score, replicate mean: -0.494; p65 translocation z-score, replicate 1: -0.436
Tnfrsf17 #5, siRNA vendor or control pool qiagen single siRNA | p65 translocation z-score, replicate mean: -1.87; p65 translocation z-score, replicate 1: -0.688
Tnfrsf17 #6, siRNA vendor or control pool qiagen single siRNA | p65 translocation z-score, replicate mean: 1.35; p65 translocation z-score, replicate 1: 1.46
Cd52 #1, siRNA vendor or control pool ambion single siRNA | p65 translocation z-score, replicate mean: -0.976; p65 translocation z-score, replicate 1: -0.976
Cd52 #2, siRNA vendor or control pool ambion single siRNA | p65 translocation z-score, replicate mean: 0.17; p65 translocation z-score, replicate 1: 0.17
Cd52 #3, siRNA vendor or control pool ambion single siRNA | p65 translocation z-score, replicate mean: 0.556; p65 translocation z-score, replicate 1: 0.628
Cd52 #4, siRNA vendor or control pool qiagen single siRNA | p65 translocation z-score, replicate mean: 0.0694; p65 translocation z-score, replicate 1: 0.0766
Cd52 #5, siRNA vendor or control pool qiagen single siRNA | p65 translocation z-score, replicate mean: -2.48 (active); p65 translocation z-score, replicate 1: -1.8
Cd52 #6, siRNA vendor or control pool qiagen single siRNA | p65 translocation z-score, replicate mean: 1.26; p65 translocation z-score, replicate 1: 0.569

Entries listed above marked active (1):
Cd52 #5, siRNA vendor or control pool qiagen single siRNA | p65 translocation z-score, replicate mean: -2.48 (active); p65 translocation z-score, replicate 1: -1.8

The listing continues.
Tas2r108 #1, siRNA vendor or control pool ambion single siRNA | p65 translocation z-score, replicate mean: 1.01; p65 translocation z-score, replicate 1: 1.72
Tas2r108 #2, siRNA vendor or control pool ambion single siRNA | p65 translocation z-score, replicate mean: -2.33 (active); p65 translocation z-score, replicate 1: -2.39
Tas2r108 #3, siRNA vendor or control pool ambion single siRNA | p65 translocation z-score, replicate mean: -0.767; p65 translocation z-score, replicate 1: -0.57
Tas2r108 #4, siRNA vendor or control pool qiagen single siRNA | p65 translocation z-score, replicate mean: 1.01; p65 translocation z-score, replicate 1: 1.57
Tas2r108 #5, siRNA vendor or control pool qiagen single siRNA | p65 translocation z-score, replicate mean: -2.92 (active); p65 translocation z-score, replicate 1: -1.68
Tas2r108 #6, siRNA vendor or control pool qiagen single siRNA | p65 translocation z-score, replicate mean: -2.99 (active); p65 translocation z-score, replicate 1: -2.99
Brs3 #1, siRNA vendor or control pool ambion single siRNA | p65 translocation z-score, replicate mean: 1.38; p65 translocation z-score, replicate 1: 1.38
Brs3 #2, siRNA vendor or control pool ambion single siRNA | p65 translocation z-score, replicate mean: -0.247; p65 translocation z-score, replicate 1: 0.278
Brs3 #3, siRNA vendor or control pool ambion single siRNA | p65 translocation z-score, replicate mean: -0.556; p65 translocation z-score, replicate 1: -0.275
Brs3 #4, siRNA vendor or control pool qiagen single siRNA | p65 translocation z-score, replicate mean: -0.0923; p65 translocation z-score, replicate 1: -0.553
Brs3 #5, siRNA vendor or control pool qiagen single siRNA | p65 translocation z-score, replicate mean: 0.236; p65 translocation z-score, replicate 1: -0.029
Brs3 #6, siRNA vendor or control pool qiagen single siRNA | p65 translocation z-score, replicate mean: 1.09; p65 translocation z-score, replicate 1: 0.679
Cabp7 #1, siRNA vendor or control pool ambion single siRNA | p65 translocation z-score, replicate mean: 4.08 (active); p65 translocation z-score, replicate 1: 3.29
Cabp7 #2, siRNA vendor or control pool ambion single siRNA | p65 translocation z-score, replicate mean: -5.05 (active); p65 translocation z-score, replicate 1: -5.05
Cabp7 #3, siRNA vendor or control pool ambion single siRNA | p65 translocation z-score, replicate mean: -1.02; p65 translocation z-score, replicate 1: 0.38
Cabp7 #4, siRNA vendor or control pool qiagen single siRNA | p65 translocation z-score, replicate mean: -1.52; p65 translocation z-score, replicate 1: -1.59
Cabp7 #5, siRNA vendor or control pool qiagen single siRNA | p65 translocation z-score, replicate mean: -3.58 (active); p65 translocation z-score, replicate 1: -2.04
Cabp7 #6, siRNA vendor or control pool qiagen single siRNA | p65 translocation z-score, replicate mean: -3.41 (active); p65 translocation z-score, replicate 1: -2.23
